US10179115B2, “Methods for treating malaria using potassium channel inhibitors” (THE CHILDREN'S MEDICAL CENTER CORPORATION, priority 2015, dated 2019)

Key:
Format in all cases: cell-based
[1] = system: P. falciparum 3D7; assay: in vitro growth inhibition of P. falciparum 3D7 over one asexual cycle; conditions: Plasmodium falciparum, read-out: IC50 (mean ± 95% confidence interval)
[2] = system: P. falciparum W2mef; assay: microbe, parasite or virus in culture; conditions: Plasmodium falciparum, read-out: IC50 (mean ± 95% confidence interval)
[3] = system: P. falciparum 7G8; assay: in vitro growth inhibition of P. falciparum 7G8; conditions: Plasmodium falciparum; P. falciparum 7G8, Res CQ; read-out: IC50 (mean ± 95% confidence interval)

In the case of `Clc1ccccc1C(c1ccccc1)(c1ccccc1)n1ccnc1` [CLT, clotrimazole], the IC50 [1] is reported as 5.67 ± 1.11 µM, the IC50 [2] is reported as 8.92 ± 0.02 µM and the IC50 [3] is reported as 2.46 ± 0.12 µM.
